Test results as given in PubChem BioAssay AID540276 (National Center for Advancing Translational Sciences (NCATS), 2011).
Several values for one entry are separate records, joined by “and”; a condition that tells them apart may be missing. Identical values can stand only once. About 5,400 (1.8%) of roughly 300,000 compounds were called active. The shares of active, inactive and inconclusive entries below differ from those in the screen. The call rests on the fitted dose curve; tested in HEK293 cells. Potencies beside an inconclusive call are fits to weak or partial responses and may not hold up. A structure can be active in one record and inactive in another.

Assay: qHTS for inhibitors of binding or entry into cells for Marburg Virus
Settings: Marburg virus pseudotyped entry inhibition, cell reporter; activity change, negative = inhibition: at 37.8 µM (top of the series) unless noted
On the % scale 0 is the no-effect control and ±100 the full control effect; potency means the concentration at half of the fitted maximal effect.

| SMILES | Potency | activity change, negative = inhibition |
| --- | --- | --- |
| CCCNC(=O)C1CC(=O)N(c2ccc(OCc3ccc(Cl)cc3)cc2)C1 (centres undefined) | inconclusive: 5.62 µM [inhibitor, full curve, poor fit] |  |
| O=C(COc1ccc(Br)cc1CO)Nc1ccc(F)cc1 |  | inactive: 1.1% |
| COc1ccc(C2NCCn3cccc32)cc1 (centres undefined) |  | inactive: -1.19% |
| CCOc1ccc(-n2cc(-c3ccccc3)c3c(N4CCOCC4)ncnc32)cc1 | inconclusive: 11.2 µM [inhibitor, single point] |  |
| CN(C)CCc1nn[nH]n1 | inconclusive: 10.3 µM [activator, partial curve] |  |
| O=C(Nc1ccc(-c2nc3cc(Cl)ccc3c(=O)o2)cc1)c1ccco1 |  | inactive: 14.5% |
| COC(=O)CC1(c2ccc(OC)cc2)C(=O)c2ccccc2C1=O | inconclusive: 25.1 µM [inhibitor, partial curve, poor fit] |  |
| CCc1cccc(C)c1NC(=O)C1CN(S(=O)(=O)c2ccccc2)CCN1S(=O)(=O)c1ccccc1 (centres undefined) | inconclusive: 5.17 µM [inhibitor, partial curve, poor fit] |  |
| CC(=O)Nc1ccc(Oc2cncc(Cl)c2)nc1 | inconclusive: 10 µM [activator, partial curve, poor fit] |  |
| O=C(Cn1nnc(-c2ccc3c(c2)OCO3)n1)N1CCOCC1 | inconclusive: 10 µM [activator, partial curve] |  |
| O=S(=O)(c1ccccc1)n1ccc2cccnc21 |  | inactive: -7.62% [at 46.1 µM] |
| Cc1cc(NC(=O)CSc2nc(-c3ccco3)cc(C(F)(F)F)n2)n(-c2ccccc2)n1 | inconclusive: 6.31 µM [inhibitor, full curve] |  |
| COc1cc(NC(=S)N2CCCC(CO)C2)cc(OC)c1 (centres undefined) |  | inactive: 15.9% [at 46.1 µM] |
| Cc1cc2oc(=O)cc(CN(C)Cc3ccccc3)c2cc1C(C)C | inconclusive: 35.5 µM [inhibitor, single point] |  |
| COc1cc2ccccc2cc1C(=O)Nc1ccccc1N1CCCC1 | inconclusive: 35.5 µM [inhibitor, single point] |  |
| c1ccc(CN2CCC(CNc3ncnc4ccccc34)C2)cc1 (centres undefined) | inconclusive: 12.6 µM [inhibitor, partial curve, poor fit] |  |
| CSc1ccccc1NC(=O)c1ccc(CN2CCOCC2)cc1 | inconclusive: 35.5 µM [activator, single point] |  |
| CN(C)CCNC(=O)c1ccc(Cl)c2cc3ccccc3nc12 | inconclusive: 10 µM [inhibitor, partial curve, poor fit] |  |
| CSc1ccc(S(=O)(=O)N(C)Cc2ccccc2)cc1 | inconclusive: 12.6 µM [inhibitor, partial curve, poor fit] |  |
| Cc1ccc(C(=O)CSc2nc(-c3ccccc3)nc3c2CCCC3)cc1 | inconclusive: 0.316 µM [activator, full curve, poor fit] |  |
| O=C(CCC(=O)Nc1cccc2ccccc12)N/N=C/c1ccco1 |  | inactive: 12.4% |
| Cc1ccc(NC(=O)C2C(c3ccccc3)C2(Cl)Cl)c(C)c1 (centres undefined) | inconclusive: 29.1 µM [inhibitor, single point] |  |
| Cc1cccc(NC(=S)N/N=C2\CC(C)(C)Oc3ccc(O)cc32)c1 | active: 4.47 µM |  |

| SMILES | Potency | activity change, negative = inhibition |
| --- | --- | --- |
| Nc1c(-c2ccccc2)c(CN2CCOCC2)nn1-c1ccc(F)cc1 | inconclusive: 5.01 µM [activator, single point] |  |
| CCCCCCn1c(NCC)nc2c1c(=O)n(C)c(=O)n2C | inconclusive: 4.47 µM [inhibitor, full curve, poor fit] |  |
| C=CCn1c(O)c(C(C)=NCc2cc(OC)cc(OC)c2)c(=O)[nH]c1=O | inconclusive: 22.4 µM [inhibitor, single point] |  |
| COc1ccccc1N(CC(=O)NCc1ccccc1C)S(=O)(=O)c1ccc(C)cc1 | inconclusive: 14.1 µM [inhibitor, partial curve, poor fit] |  |
| COc1ccc(S(=O)(=O)Nc2ccc(NC(C)=O)cc2)cc1Cl | inconclusive: 3.16 µM [inhibitor, single point] |  |
| CN(CC1COCCO1)C(=O)c1cc(COc2c(F)cccc2F)on1 (centres undefined) | inconclusive: 22.4 µM [activator, single point] |  |
| O=C(COC(=O)CNS(=O)(=O)c1ccc2ccccc2c1)Nc1ccccc1Sc1ccccc1 |  | inactive: -11.3% |
| Brc1ccc(-c2nnc(-c3ccccc3Br)o2)cc1 | inconclusive: 0.92 µM [activator, single point] |  |
| Cc1ccc(SCn2nnc3ccccc3c2=O)c(C)c1 | inconclusive: 14.1 µM [inhibitor, single point] |  |
| COc1ccccc1NC(=S)NC(=O)c1ccc(-c2ccc(Cl)cc2)o1 |  | inactive: -14.9% |
| COc1ccc(OC)c(NC(=O)CSc2ccc(-c3cccnc3)nn2)c1 | inconclusive: 0.891 µM [inhibitor, full curve, poor fit] |  |
| O=C(COC(=O)c1ccccc1Cc1ccccc1)Nc1ccc(SC(F)F)cc1 | inconclusive: 29.1 µM [inhibitor, single point] |  |
| CC(NC(=O)COC(=O)C1CCN(c2ccc(C(F)(F)F)cn2)CC1)c1ccc(Br)cc1 (centres undefined) | inconclusive: 14.1 µM [activator, partial curve] |  |
| COc1cc2c(cc1OC)C(c1cccs1)N(C(=O)c1ccncc1)CC2 (centres undefined) | inconclusive: 35.5 µM [inhibitor, single point] |  |
| Cc1cc(C(=O)NCc2ccco2)c2cc(F)ccc2n1 |  | inactive: 11.2% [at 46.1 µM] |
| CCC(C)(C)NC(=O)c1sccc1Oc1ccc(F)cc1[N+](=O)[O-] | inconclusive: 0.562 µM [inhibitor, full curve, poor fit] |  |
| Cn1nc(C(=O)OCc2ccc(Br)cc2F)c2ccccc2c1=O | inconclusive: 20 µM [inhibitor, partial curve, poor fit] |  |
| Cc1nc(NC(=O)COC(=O)CCc2nc3ccccc3s2)c(Cl)cc1Cl |  | inactive: 3.27% |
| CN(C)C(=O)Oc1cccc([N+](C)(C)C)c1 | inconclusive: 2.91 µM [inhibitor, partial curve] |  |
| Cc1ccc(S(=O)(=O)Nc2cccc(-c3cn4cccc(C)c4n3)c2)c(C)c1 |  | inactive: -11.9% [at 46.1 µM] |
| CC(C)CC(=O)N1CCC(O)(CS(=O)(=O)c2ccc(Cl)c(Cl)c2)CC1 | inconclusive: 31.6 µM [activator, partial curve, poor fit] |  |
| O=C(N/N=C\c1ccc2c(c1)OCO2)c1cncc(Br)c1 |  | inactive: -5.3% [at 46.1 µM] |
| NC(=O)c1sc2nc(N3CCCCC3)c3c(c2c1N)CCCC3 | inconclusive: 29.1 µM [activator, single point] |  |

| SMILES | Potency | activity change, negative = inhibition |
| --- | --- | --- |
| Cc1ccc2c(c1)C(N1CCN(C)CC1)=Nc1cccnc1N2 | active: 11.2 µM |  |
| O=C(N/N=C/c1ccccc1)c1ccc(NC(=O)c2ccc(F)cc2)cc1 |  | inactive: 21.5% [at 46.1 µM] |
| Cc1nc2c(C)cccc2c2c1CCN2c1ccccc1F | inconclusive: 11.2 µM [inhibitor, partial curve, poor fit] |  |
| CCn1c(SCC(=O)N2CCCCC2C)nc2ccsc2c1=O (centres undefined) | inconclusive: 32.6 µM [inhibitor, single point] |  |
| C(=C\c1nc(-c2ccncc2)no1)/c1ccccc1 | inconclusive: 3.16 µM [activator, single point] |  |
| COc1ccccc1-c1nnc(SCC(=O)N2CCCC2)o1 |  | inactive: -5.08% [at 46.1 µM] |
| O=C(N/N=C\c1cc(Br)ccc1O)c1ccc(S(=O)(=O)N2CCCCC2)cc1 | inconclusive: 8.91 µM [inhibitor, partial curve, poor fit] |  |
| CCOC(=O)c1ccc(NC(=O)N2CCc3ccccc32)cc1 | inconclusive: 0.92 µM [activator, partial curve] |  |
| COCCCn1c(SCC(=O)Nc2ccc(C(C)=O)cc2)nc2ccccc2c1=O |  | inactive: 15.5% |
| CCn1cc(C(=O)N2CCN(c3ccc(C)cc3)C(C)C2)c(=O)c2cc(S(=O)(=O)N3CCCC3)ccc21 (centres undefined) |  | inactive: -0.385% [at 46.1 µM] |
| COc1ccc(CCNC(=O)CCc2ccccc2)cc1OC | inconclusive: 22.4 µM [activator, single point] |  |
| CN(C)S(=O)(=O)c1cccc(COc2cccnc2[N+](=O)[O-])c1 |  | inactive: -13.5% [at 46.1 µM] |
| O=C1Oc2ccccc2C(=O)/C1=C/c1ccccc1O | inconclusive: 35.5 µM [inhibitor, single point] |  |
| O=C(NC1CCCCC1)C1CCN(C(=O)NCc2ccccc2)CC1 |  | inactive: -0.732% |
| Cc1ccc2c3c([nH]c2c1)C(=O)CC(C)(C)S3 | inconclusive: 14.1 µM [activator, single point] |  |
| COc1ccc(CCNC(=O)Cn2c(=O)n(Cc3ccco3)c(=O)c3ccc(Cl)cc32)cc1OC | inactive and inconclusive: 35.5 µM [inhibitor, single point] |  |
| O=C(CSCn1nnc2c(=O)[nH]c(Cc3ccc(F)cc3)nc21)Nc1cccc(C(F)(F)F)c1 |  | inactive: 4.09% [at 46.1 µM] |
| CN1CCC(OC(c2ccccc2)c2ccccc2)CC1 | inconclusive: 20.6 µM [inhibitor, single point] |  |
| COc1ccc(NC(=O)CCCc2ccccc2)cc1OC | inconclusive: 10 µM [activator, partial curve, poor fit] |  |
| CCn1c(COc2ccc(Cl)cc2)nnc1SCc1nc2ccccc2[nH]1 | inconclusive: 18.3 µM [inhibitor, single point] |  |
| CCc1ccc(C(CNc2nc(C(F)(F)F)nc3ccccc23)N(C)C)cc1 (centres undefined) | inconclusive: 12.6 µM [inhibitor, partial curve, poor fit] |  |
| COc1ccc(CNC(=O)C(C)OC(=O)Cn2cnc3c2c(=O)n(C)c(=O)n3C)cc1 (centres undefined) | inconclusive: 31.6 µM [activator, single point] |  |
| CSc1ccccc1NC(=O)c1ccccn1 | inconclusive: 3.55 µM [inhibitor, single point] |  |
